Source: PubChem BioAssay AID1347076 (National Center for Advancing Translational Sciences (NCATS), 2019)
“And” between values parts separate entries of the source, which are not always exact repeats. Equal values may be shown once. Screen size: about 400,000 compounds; about 13,000 (3.2%) were called active. Inconclusive results, whose numbers are uncertain, are shown with a selection of clear calls. The call rests on the fitted dose curve; in most records, active means well fitted cell-killing curve with a large enough effect; inconclusive means small, poorly fitted or top-dose-only effect, or effect the other way; inactive means flat fitted curve, though single readings scatter. A potency beside an inconclusive call is a rough fit, not a confirmed value.

Assay: qHTS assay for MDR1-selective chemotherapeutics: Primary screen using the drug-selected MDR subline cells KB-V1; further: nearly all actives have a fitted effect of over 60% in size
Conditions: KB-V1 MDR cells viability, CellTiter-Glo, 72 h; activity change, negative = cytotoxicity: at 46.1 µM (top of the series)
Method in brief: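 Luminescent ATP read-out (CellTiter-Glo, 10 min) measures survival of drug-selected KB-V1 MDR cells after 72 h, 37 degrees C compound exposure. Medium: phenol-red-free DMEM, 10% FBS. Values from fitted concentration-response curves.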
On the % scale 0 is the no-effect control and ±100 the full control effect; potency means the concentration at half of the fitted maximal effect.

With `C[N+](C)(C)c1ccc(/C=C/c2ccnc3ccccc23)cc1` as the compound, how does the Potency read?
The Potency was inconclusive: 29.1 µM [cytotoxic, single point].

With `CS(=O)(=O)NNC(=O)c1csc(Cc2c(Cl)sc3ccc(Cl)cc23)n1` as the compound, how does the Potency read?
Its Potency is inconclusive: 14.6 µM [cytotoxic, partial curve].

For `CC(Sc1nc2ccccc2[nH]1)C(=O)NC1CCCCC1C` (stereo not drawn), which Potency is on record?
The Potency was inconclusive: 7.31 µM [cytotoxic, partial curve].

For `Cc1ccc(Cl)cc1NC(=S)N(CCCN1CCN(C)CC1)Cc1cccs1`, which Potency is on record?
Its Potency is inconclusive: 9.2 µM [cytotoxic, partial curve].

Which Potency does the source give for `COc1ccccc1N(CC(=O)NC1CCCCC1)C(=O)c1csnn1` here?
The Potency was inconclusive: 16.4 µM [cytotoxic, single point].

With `COc1cccc(-c2nn(-c3ccccc3)cc2CN(C)C(C)c2ccncn2)c1` (stereo not drawn) as the compound, how does the Potency read?
The Potency was inconclusive: 8.2 µM [cytotoxic, partial curve, poor fit].

For `COc1ccc(NS(=O)(=O)c2ccc(O)c(C(=O)OCC(=O)NC(C)C3CC4CCC3C4)c2)cc1` (stereo not drawn), which “activity change, negative = cytotoxicity” value is on record?
Its value is inactive: -2.05%.

Which Potency does the source give for `COCC1CCCCN1C(=O)c1cc(COc2ccc3ncccc3c2)on1` (stereo not drawn) here?
Its Potency is inconclusive: 2.91 µM [cytotoxic, partial curve, poor fit].

Which Potency does the source give for `O=c1cccc(-c2ccccc2)[nH]1` here?
Its Potency is inconclusive: 29.1 µM [cytotoxic, single point].

Which Potency does the source give for `COc1ccc(-c2nnc(SCC(=O)Nc3ncc(C)s3)n2-c2ccccc2)cc1OC` here?
The Potency was inconclusive: 20.6 µM [cytotoxic, single point].

For `O=C(O)C1CCCC2CN3CCc4c([nH]c5ccccc45)C3C(O)C21` (stereo not drawn), which Potency is on record?
Its Potency is inconclusive: 25.9 µM [rising, partial curve, poor fit].

Which “activity change, negative = cytotoxicity” value does the source give for `COc1ccc(Cl)cc1NC(=O)c1ccc(CN2C(=O)CCn3nc(C)cc32)cc1` here?
The value was inactive: 17.6%.

With `CCc1ccc(/C=N/NC(=O)c2cc(C3CC3)nc3ccc(Br)cc23)s1` as the compound, how does the Potency read?
The Potency was active: 4.11 µM.

For `COC(=O)c1c(NC(=O)C2c3ccccc3Oc3ccccc32)sc(C)c1C`, which Potency is on record?
The Potency was inconclusive: 20.6 µM [cytotoxic, single point].

With `CC(C)(C)OC(=O)N(CCc1ccccc1)Cc1ccccc1OCc1ccc(NC(=O)C2CCCC2)cc1` as the compound, how does the “activity change, negative = cytotoxicity” value read?
The value was inactive: -19%.

With `CCC1=C(C(=O)OC)C(c2cc(OC)ccc2OC)C(C#N)=C(N)O1` (stereo not drawn) as the compound, how does the Potency read?
The Potency was inconclusive: 29.1 µM [cytotoxic, single point].

With `CCOc1ccccc1C(=O)Nc1nn[nH]n1` as the compound, how does the “activity change, negative = cytotoxicity” value read?
The value was inactive: 22.6%.

For `COc1ccc([C@@H]2C[C@@H](c3ccccc3)Oc3cc(OC)cc(OC)c32)cc1`, which “activity change, negative = cytotoxicity” value is on record?
Its value is inactive: -12.4%.

Which “activity change, negative = cytotoxicity” value does the source give for `CCSc1nnc(-c2c[nH]c3ccccc23)o1` here?
Its value is inactive: 11.2%.

For `CCOc1ccc(S(=O)(=O)N(CCO)CCO)cc1-c1nc2c(C(C)(C)C)nn(C)c2c(=O)[nH]1`, which “activity change, negative = cytotoxicity” value is on record?
Its value is inactive: 19.2%.

With `Cc1ccc(NC(=O)OCc2ccccc2S(C)=O)cc1` (stereo not drawn) as the compound, how does the Potency read?
The Potency was inconclusive: 14.6 µM [cytotoxic, single point].

With `CCOC(=O)C1(Cc2cccc(Cl)c2)CCCN(C(=O)c2cc(CC)on2)C1` (stereo not drawn) as the compound, how does the Potency read?
The Potency was inconclusive: 13 µM [cytotoxic, partial curve].

With `NC(=O)Cn1c(=O)n(CCC(=O)Nc2ccc(F)cc2)c(=O)c2sccc21` as the compound, how does the Potency read?
The Potency was inconclusive: 14.6 µM [rising, single point].

For `CC(=O)Nc1ccccc1Nc1cc(C#N)c(C#N)cc1[N+](=O)[O-]`, which Potency is on record?
The Potency was inconclusive: 29.1 µM [rising, single point].

Which Potency does the source give for `CCCCN(CC)CCCNC(=O)Cn1nc(CC)n2c(cc3sccc32)c1=O` here?
The Potency was inconclusive: 20.6 µM [rising, partial curve, poor fit].

With `COCCCn1c(C)nc2c(c1=O)c1nc3ccccc3nc1n2CCc1ccccc1` as the compound, how does the Potency read?
The Potency was inconclusive: 2.06 µM [cytotoxic, full curve].

With `Cc1nn(CC(=O)N2c3ccccc3NC(=O)C2(C)C)c(C)c1[N+](=O)[O-]` as the compound, how does the “activity change, negative = cytotoxicity” value read?
The value was inactive: 10.3%.

Which “activity change, negative = cytotoxicity” value does the source give for `CSc1ncc(C(=O)NCc2ccc(F)cc2)c(-c2ccccc2)n1` here?
Its value is inactive: -10.5%.

Which “activity change, negative = cytotoxicity” value does the source give for `O=C(c1cc(Cl)cc(Cl)c1)N1CCC2CC1c1cc(-c3ccc4c(c3)OCO4)ccc12` (stereo not drawn) here?
Its value is inactive: 0.0002%.

Which “activity change, negative = cytotoxicity” value does the source give for `COc1ccc(S(=O)(=O)N2CCCCC2)cc1C(=O)N1CCCC1` here?
Its value is inactive: 2.25%.

Which Potency does the source give for `COc1ccccc1C(c1nnnn1CS(=O)(=O)c1ccc(C)cc1)N1CCSCC1` (stereo not drawn) here?
The Potency was inconclusive: 18.4 µM [cytotoxic, partial curve, poor fit].

For `CCOc1ccc(N2C(N)=NC(N)=NC2(C)C)cc1`, which “activity change, negative = cytotoxicity” value is on record?
The value was inactive: 23.7%.

For `Cc1cc(C)n(CCNC(=O)c2cc(COc3c(F)cccc3F)on2)n1`, which Potency is on record?
Its Potency is inconclusive: 1.84 µM [cytotoxic, full curve].

With `S=c1[nH]nc(Cc2sc(-c3ccccc3)nc2-c2ccccc2)o1` as the compound, how does the Potency read?
The Potency was inconclusive: 20.6 µM [cytotoxic, partial curve].

With `COc1ccc(Cc2nnc(NC(=O)c3ccccc3F)s2)cc1` as the compound, how does the “activity change, negative = cytotoxicity” value read?
Its value is inactive: 0.755%.

With `Cc1c(C(=O)NCc2ccc(F)cc2)sc(=O)n1Cc1ccc(Cl)c(Cl)c1` as the compound, how does the Potency read?
The Potency was active: 16.4 µM.

Which “activity change, negative = cytotoxicity” value does the source give for `Cn1ccn(CCCCCCn2ccn(C)c2=S)c1=S` here?
Its value is inactive: -0.405%.

For `O=C1C=C(c2cc3ccccc3s2)C[C@@H](c2ccc(F)cc2)C1`, which “activity change, negative = cytotoxicity” value is on record?
Its value is inactive: -15.9%.

With `CCOc1ccc(CN(C)CC(=O)Nc2ccc3c(c2)CCC3)cc1OC` as the compound, how does the “activity change, negative = cytotoxicity” value read?
The value was inactive: -19.1%.

For `Cc1ccc(-c2oc3ncnc(N)c3c2-c2ccc(C)cc2)cc1`, which “activity change, negative = cytotoxicity” value is on record?
The value was inactive: 16%.

Which Potency does the source give for `CCCCCC1C(=O)N2C=C(c3ccccc3)c3ccccc3N2C1=O` (stereo not drawn) here?
Its Potency is inconclusive: 20.6 µM [cytotoxic, single point].

With `CCc1ccc(OCC(=O)NC(NC(=S)Nc2ccc(C)cc2C)C(Cl)(Cl)Cl)cc1` (stereo not drawn) as the compound, how does the Potency read?
Its Potency is inconclusive: 11.6 µM [cytotoxic, partial curve].

With `C=CCNC(=O)CCNS(=O)(=O)c1ccc(Br)cc1` as the compound, how does the “activity change, negative = cytotoxicity” value read?
The value was inactive: -28%.

Which Potency does the source give for `COc1ccc(CCN2CN(S(=O)(=O)c3ccc(OC)cc3)c3nc4ccccc4nc32)cc1` here?
The Potency was inconclusive: 18.4 µM [cytotoxic, partial curve, poor fit].

Which Potency does the source give for `O=C(O)C1CCCCN1S(=O)(=O)c1ccccc1` (stereo not drawn) here?
Its Potency is inconclusive: 29.1 µM [rising, single point].

With `CC(=O)OCc1cnc(C)c2oc(=O)c(C(=O)Nc3cc(F)ccc3C)cc12` as the compound, how does the “activity change, negative = cytotoxicity” value read?
The value was inactive: 18.4%.

With `O=C(c1ccc([N+](=O)[O-])cc1)N(Cc1ccco1)c1ccccn1` as the compound, how does the “activity change, negative = cytotoxicity” value read?
Its value is inactive: -0.104%.

Which “activity change, negative = cytotoxicity” value does the source give for `COc1cc(/C=N/NC(=O)NC23CC4CC(CC(C4)C2)C3)ccc1O` here?
Its value is inactive: 17.8%.

Which “activity change, negative = cytotoxicity” value does the source give for `O=C(CSc1nc2ccccc2c(=O)n1-c1ccc(F)c(Cl)c1)Nc1cccc(S(=O)(=O)N2CCOCC2)c1` here?
Its value is inactive: 5.81%.

For `CCOc1ccccc1NC(=O)C1CCCN(c2ncnc3onc(-c4ccc(F)cc4)c23)C1` (stereo not drawn), which “activity change, negative = cytotoxicity” value is on record?
The value was inactive: -4.23%.

For `Cn1c(NCc2cccs2)nc2ccccc21`, which “activity change, negative = cytotoxicity” value is on record?
Its value is inactive: -7.68%.

Which “activity change, negative = cytotoxicity” value does the source give for `Cc1ccc(NC(=O)CSc2nnc(COc3ccc(Cl)cc3)o2)cc1` here?
The value was inactive: -10.2%.

For `Cc1ccc2c(C)c(C(=O)N(Cc3ccccc3)C3CCS(=O)(=O)C3)oc2c1` (stereo not drawn), which Potency is on record?
The Potency was inconclusive: 9.2 µM [cytotoxic, partial curve].

Which Potency does the source give for `O=C1c2cccc3c([N+](=O)[O-])ccc(c23)C(=O)N1c1ccccn1` here?
The Potency was inconclusive: 16.4 µM [cytotoxic, single point].

Which Potency does the source give for `CCOC(=O)c1oc2ccccc2c1CSc1nnc(-c2ccco2)o1` here?
Its Potency is inconclusive: 6.51 µM [cytotoxic, full curve].

With `Cc1cccc(NC(=O)CCc2nc3sc4c(c3c(=O)[nH]2)CCCC4)c1` as the compound, how does the Potency read?
Its Potency is inconclusive: 29.1 µM [cytotoxic, single point].

For `N#C/C(=C\c1ccncc1)c1ccccn1`, which Potency is on record?
Its Potency is inconclusive: 20.6 µM [cytotoxic, single point].

With `N#CC(=C1C=CC(=NO)C(Cl)=C1)c1ccccc1` as the compound, how does the Potency read?
The Potency was inconclusive: 20.6 µM [cytotoxic, single point].

For `Cc1cc(C(=O)COc2ccc(Cl)cc2Br)c(C)n1C`, which Potency is on record?
Its Potency is inconclusive: 20.6 µM [cytotoxic, single point].

For `CCCn1nnnc1NCc1ccc(N2CCCC2)cc1`, which Potency is on record?
The Potency was inconclusive: 20.6 µM [cytotoxic, single point].

With `COc1ccc(S(=O)(=O)N(CC(=O)N2CCN(c3ccccc3OC)CC2)c2ccccc2)cc1` as the compound, how does the Potency read?
Its Potency is inconclusive: 29.1 µM [cytotoxic, single point].

With `NC(=O)CN1C(=O)C2(SCC(=O)N2c2cccc(F)c2)c2ccccc21` (stereo not drawn) as the compound, how does the “activity change, negative = cytotoxicity” value read?
The value was inactive: -7.66%.

For `CC(C)OC(=O)/C(C#N)=C/c1ccc(-c2ccc(SC(F)F)cc2)o1`, which “activity change, negative = cytotoxicity” value is on record?
The value was inactive: -7.06%.

With `CCc1ccc(CN(C)C(=O)CCc2nc3ccccc3n(-c3ccc(OC)cc3)c2=O)cc1` as the compound, how does the Potency read?
Its Potency is active: 11.6 µM.

Which Potency does the source give for `Cc1cc(C)nc(N/N=C/C2=C(O)CC(c3ccc(F)cc3)CC2=O)n1` (stereo not drawn) here?
Its Potency is inconclusive: 6.51 µM [cytotoxic, partial curve].

For `Cc1cccc(NS(=O)(=O)c2ccc3c(c2)OCCO3)c1`, which Potency is on record?
Its Potency is inconclusive: 18.4 µM [cytotoxic, single point].

With `CCOC(=O)c1c(-c2ccccc2)oc2ccc(O)c(CN(C)C)c12` as the compound, how does the Potency read?
The Potency was inconclusive: 20.6 µM [cytotoxic, single point].

With `CCN(CC)CCC(c1ccc2c(c1)OCO2)c1c(O)cc(OC)cc1OC` (stereo not drawn) as the compound, how does the “activity change, negative = cytotoxicity” value read?
The value was inactive: 1.19%.

With `COc1ccc(NC(=O)c2ccc(NC(=O)CN3CCN(c4ccccc4)CC3)cc2)cc1` as the compound, how does the Potency read?
Its Potency is inconclusive: 29.1 µM [rising, single point].

Which “activity change, negative = cytotoxicity” value does the source give for `CCN(c1ccccc1)S(=O)(=O)c1ccc(OC)c(NC(=O)CCc2nc3ccccc3c(=O)[nH]2)c1` here?
The value was inactive: -23.9%.

Which “activity change, negative = cytotoxicity” value does the source give for `O=C(CCc1ccc(S(=O)(=O)N2CCOCC2)cc1)OCC(=O)c1ccccc1` here?
Its value is inactive: 26.2%.

Which Potency does the source give for `O=C(CSc1ncnc2nc[nH]c12)Nc1ccc(Br)cc1Cl` here?
Its Potency is inconclusive: 20.6 µM [cytotoxic, partial curve].

For `CCN1CCN(Cc2ccc(NC(=O)c3ccc(C)c(NC(=O)C(=O)c4c[nH]c5ccccc45)c3)cc2C(F)(F)F)CC1`, which Potency is on record?
Its Potency is inconclusive: 29.1 µM [cytotoxic, single point] and inconclusive: 29.1 µM [cytotoxic, partial curve, poor fit] and inconclusive: 20.6 µM [cytotoxic, single point].
